Assay results published in ChEMBL document CHEMBL1155233, “Structure mechanism insights and the role of nitric oxide donation guide the development of oxadiazole-2-oxides as therapeutic agents against schistosomiasis” (J Med Chem, 2009).
≈ marks a conversion by molar mass, not a printed value.

Legend:
[1] = Metabolic stability in human liver microsomes assessed as compound remaining over 60 mins in presence of NADPH; assay type: ADME, Microsome; conditions: read-out: Stability
[2] = Solubility by quantitative nitrogen detection based method
[3] = Distribution coefficient, log D of the compound; conditions: octanol/water

SMILES: N#Cc1c(-c2csc(-c3no[n+]([O-])c3C#N)c2)no[n+]1[O-]
- remaining at 1 h [1]: 12%
- solubility [2]: 122 µM (≈ 36.9 µg/mL)
- logD [3]: 2.92
